Measurements published in the supplement of paper PMC10849652.
The list shows a part of the results.

By UniProt entry, the sequences of proteins in these tests, tags left out. Where a name states a change or a piece, a line headed by the entry shows the natural chain unless it says otherwise.
UniProt Q0VD83: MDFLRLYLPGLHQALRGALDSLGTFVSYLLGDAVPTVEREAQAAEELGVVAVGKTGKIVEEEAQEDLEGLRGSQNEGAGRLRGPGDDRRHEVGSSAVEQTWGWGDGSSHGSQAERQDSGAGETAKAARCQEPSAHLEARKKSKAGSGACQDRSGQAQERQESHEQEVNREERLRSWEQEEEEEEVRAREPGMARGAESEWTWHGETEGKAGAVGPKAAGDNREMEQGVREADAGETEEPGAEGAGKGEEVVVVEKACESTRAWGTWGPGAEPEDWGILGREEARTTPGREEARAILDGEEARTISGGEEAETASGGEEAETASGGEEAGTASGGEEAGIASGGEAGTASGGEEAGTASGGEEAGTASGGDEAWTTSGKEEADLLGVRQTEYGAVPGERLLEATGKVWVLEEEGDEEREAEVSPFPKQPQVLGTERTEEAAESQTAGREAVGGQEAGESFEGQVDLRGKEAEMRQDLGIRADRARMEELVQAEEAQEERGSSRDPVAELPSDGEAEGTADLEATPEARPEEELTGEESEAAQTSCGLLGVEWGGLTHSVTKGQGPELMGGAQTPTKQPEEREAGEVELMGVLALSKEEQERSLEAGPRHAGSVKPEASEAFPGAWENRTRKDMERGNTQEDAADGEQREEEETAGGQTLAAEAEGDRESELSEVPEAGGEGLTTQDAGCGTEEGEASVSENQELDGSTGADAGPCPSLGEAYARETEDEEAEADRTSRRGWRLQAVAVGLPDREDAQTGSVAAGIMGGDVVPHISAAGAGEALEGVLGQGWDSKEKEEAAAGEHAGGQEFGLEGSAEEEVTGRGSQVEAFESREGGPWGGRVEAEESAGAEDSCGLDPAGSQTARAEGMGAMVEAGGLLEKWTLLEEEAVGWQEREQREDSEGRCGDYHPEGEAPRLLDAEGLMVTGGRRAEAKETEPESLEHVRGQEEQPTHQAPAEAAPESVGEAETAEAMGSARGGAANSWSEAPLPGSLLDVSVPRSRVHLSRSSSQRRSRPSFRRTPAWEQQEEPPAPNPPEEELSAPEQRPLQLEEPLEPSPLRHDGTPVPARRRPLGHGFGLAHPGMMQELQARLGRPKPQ
UniProt Q9NVJ2: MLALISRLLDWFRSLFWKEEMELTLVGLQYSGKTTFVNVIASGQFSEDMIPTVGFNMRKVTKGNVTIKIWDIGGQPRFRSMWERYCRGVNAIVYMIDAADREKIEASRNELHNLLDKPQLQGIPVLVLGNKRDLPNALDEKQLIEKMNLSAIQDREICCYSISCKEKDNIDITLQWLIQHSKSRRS
UniProt Q96P48: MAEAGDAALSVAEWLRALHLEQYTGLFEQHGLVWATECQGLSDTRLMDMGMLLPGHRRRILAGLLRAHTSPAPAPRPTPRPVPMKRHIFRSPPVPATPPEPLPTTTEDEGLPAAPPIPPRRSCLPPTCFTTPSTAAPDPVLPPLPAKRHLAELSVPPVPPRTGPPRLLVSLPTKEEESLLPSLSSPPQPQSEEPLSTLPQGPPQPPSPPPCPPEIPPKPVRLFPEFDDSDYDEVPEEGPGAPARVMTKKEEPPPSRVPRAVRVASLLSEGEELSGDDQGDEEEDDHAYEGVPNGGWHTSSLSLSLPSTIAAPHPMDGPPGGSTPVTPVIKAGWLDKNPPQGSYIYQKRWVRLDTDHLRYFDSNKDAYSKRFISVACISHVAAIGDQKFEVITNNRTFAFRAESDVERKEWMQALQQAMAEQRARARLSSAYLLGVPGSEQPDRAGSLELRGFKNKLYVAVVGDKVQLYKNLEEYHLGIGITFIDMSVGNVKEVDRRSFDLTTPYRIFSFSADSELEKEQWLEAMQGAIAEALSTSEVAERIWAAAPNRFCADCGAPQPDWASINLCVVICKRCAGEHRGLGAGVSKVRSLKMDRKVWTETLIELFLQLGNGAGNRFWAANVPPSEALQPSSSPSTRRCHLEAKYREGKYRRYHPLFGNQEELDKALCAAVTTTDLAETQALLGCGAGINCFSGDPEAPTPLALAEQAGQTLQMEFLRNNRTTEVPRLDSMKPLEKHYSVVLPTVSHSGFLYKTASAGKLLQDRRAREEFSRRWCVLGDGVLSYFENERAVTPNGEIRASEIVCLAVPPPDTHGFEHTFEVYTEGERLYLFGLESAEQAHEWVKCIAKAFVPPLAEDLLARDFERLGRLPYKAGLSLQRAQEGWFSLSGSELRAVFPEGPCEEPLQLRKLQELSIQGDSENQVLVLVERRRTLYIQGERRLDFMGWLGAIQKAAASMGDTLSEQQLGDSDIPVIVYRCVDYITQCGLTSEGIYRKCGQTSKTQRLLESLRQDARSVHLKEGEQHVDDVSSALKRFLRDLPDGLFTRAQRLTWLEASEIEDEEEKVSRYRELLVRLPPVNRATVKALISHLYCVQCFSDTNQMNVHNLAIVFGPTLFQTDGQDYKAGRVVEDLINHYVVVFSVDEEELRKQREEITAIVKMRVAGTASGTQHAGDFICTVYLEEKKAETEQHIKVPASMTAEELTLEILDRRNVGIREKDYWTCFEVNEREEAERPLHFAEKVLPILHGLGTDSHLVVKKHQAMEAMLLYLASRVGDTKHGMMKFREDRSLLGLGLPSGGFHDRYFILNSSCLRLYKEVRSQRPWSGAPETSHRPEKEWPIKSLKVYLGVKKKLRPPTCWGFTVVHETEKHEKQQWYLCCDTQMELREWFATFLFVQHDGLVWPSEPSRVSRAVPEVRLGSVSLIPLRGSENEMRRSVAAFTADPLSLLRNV
UniProt P05067, whole entry, looked up: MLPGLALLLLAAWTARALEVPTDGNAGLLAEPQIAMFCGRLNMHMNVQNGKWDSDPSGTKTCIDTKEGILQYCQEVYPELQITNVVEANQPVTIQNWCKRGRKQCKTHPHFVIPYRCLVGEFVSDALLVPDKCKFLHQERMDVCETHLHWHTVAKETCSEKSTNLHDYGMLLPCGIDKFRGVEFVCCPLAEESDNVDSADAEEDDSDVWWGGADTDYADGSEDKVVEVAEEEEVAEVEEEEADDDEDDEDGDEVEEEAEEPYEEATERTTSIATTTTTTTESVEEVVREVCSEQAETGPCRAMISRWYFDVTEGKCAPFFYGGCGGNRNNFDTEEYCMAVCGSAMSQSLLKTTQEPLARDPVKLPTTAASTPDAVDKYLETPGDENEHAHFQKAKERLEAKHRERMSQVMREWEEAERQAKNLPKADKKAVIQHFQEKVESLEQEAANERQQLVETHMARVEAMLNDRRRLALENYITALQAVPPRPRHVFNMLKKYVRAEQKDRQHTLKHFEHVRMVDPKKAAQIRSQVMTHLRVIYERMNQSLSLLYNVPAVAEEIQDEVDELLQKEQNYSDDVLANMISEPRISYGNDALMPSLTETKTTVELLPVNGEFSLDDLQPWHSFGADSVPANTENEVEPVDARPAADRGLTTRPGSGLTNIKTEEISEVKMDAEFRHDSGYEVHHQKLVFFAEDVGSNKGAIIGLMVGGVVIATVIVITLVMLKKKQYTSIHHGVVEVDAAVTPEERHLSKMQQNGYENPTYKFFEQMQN
UniProt P27695, whole entry, looked up: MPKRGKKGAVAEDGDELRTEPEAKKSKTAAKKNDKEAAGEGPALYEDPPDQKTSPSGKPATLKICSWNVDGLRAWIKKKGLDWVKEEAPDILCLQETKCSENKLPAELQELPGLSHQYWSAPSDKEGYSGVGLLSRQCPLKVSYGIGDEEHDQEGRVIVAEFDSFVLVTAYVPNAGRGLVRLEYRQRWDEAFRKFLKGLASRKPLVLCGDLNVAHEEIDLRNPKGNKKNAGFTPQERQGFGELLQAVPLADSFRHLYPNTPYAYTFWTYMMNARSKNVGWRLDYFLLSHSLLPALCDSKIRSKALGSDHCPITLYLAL
UniProt O43299: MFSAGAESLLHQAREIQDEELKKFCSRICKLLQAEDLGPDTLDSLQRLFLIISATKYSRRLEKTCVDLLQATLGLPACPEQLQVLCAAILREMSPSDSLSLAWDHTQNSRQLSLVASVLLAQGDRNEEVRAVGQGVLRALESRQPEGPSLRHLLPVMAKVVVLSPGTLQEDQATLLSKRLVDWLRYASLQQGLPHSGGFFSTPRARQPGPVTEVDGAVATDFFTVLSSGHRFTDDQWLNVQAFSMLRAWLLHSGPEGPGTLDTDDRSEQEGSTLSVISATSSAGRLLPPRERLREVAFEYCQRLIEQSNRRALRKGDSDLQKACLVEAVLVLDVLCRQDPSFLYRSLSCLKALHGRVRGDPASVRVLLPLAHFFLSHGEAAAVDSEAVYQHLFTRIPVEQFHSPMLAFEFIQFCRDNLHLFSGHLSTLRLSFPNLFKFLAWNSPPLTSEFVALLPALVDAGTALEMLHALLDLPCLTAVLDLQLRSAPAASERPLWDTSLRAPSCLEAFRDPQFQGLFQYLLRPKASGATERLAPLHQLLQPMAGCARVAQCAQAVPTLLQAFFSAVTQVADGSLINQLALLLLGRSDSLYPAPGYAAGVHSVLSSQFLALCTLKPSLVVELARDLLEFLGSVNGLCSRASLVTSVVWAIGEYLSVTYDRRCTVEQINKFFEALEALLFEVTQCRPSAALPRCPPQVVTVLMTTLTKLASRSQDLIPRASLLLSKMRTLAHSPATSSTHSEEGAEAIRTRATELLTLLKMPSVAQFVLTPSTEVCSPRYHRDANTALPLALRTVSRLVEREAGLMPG
UniProt Q9NWB6: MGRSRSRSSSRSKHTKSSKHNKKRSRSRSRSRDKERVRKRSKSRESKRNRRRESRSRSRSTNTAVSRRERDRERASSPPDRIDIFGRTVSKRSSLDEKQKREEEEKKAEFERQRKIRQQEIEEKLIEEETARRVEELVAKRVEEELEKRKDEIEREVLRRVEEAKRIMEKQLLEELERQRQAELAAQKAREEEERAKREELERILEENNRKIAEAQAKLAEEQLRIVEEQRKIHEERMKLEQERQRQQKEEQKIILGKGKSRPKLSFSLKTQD
UniProt Q8IUR7, whole entry, looked up: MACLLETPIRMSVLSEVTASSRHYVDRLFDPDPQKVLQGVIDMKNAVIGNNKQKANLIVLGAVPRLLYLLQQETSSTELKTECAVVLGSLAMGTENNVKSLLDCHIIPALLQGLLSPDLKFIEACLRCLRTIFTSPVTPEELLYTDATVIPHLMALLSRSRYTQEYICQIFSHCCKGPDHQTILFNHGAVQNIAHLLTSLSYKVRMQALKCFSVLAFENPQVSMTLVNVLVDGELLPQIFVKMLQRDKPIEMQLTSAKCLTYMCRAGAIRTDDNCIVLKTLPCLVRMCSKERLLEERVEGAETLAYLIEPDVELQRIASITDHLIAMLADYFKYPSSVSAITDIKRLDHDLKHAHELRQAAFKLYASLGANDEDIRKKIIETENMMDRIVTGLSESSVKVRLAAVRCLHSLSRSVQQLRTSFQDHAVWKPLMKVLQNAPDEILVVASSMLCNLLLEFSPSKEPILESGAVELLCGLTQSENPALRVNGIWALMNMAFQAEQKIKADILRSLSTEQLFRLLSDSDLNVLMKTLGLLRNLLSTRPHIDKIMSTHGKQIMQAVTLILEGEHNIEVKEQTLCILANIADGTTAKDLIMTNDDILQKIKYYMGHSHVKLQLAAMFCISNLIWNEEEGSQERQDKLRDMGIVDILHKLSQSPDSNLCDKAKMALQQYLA
UniProt O00192: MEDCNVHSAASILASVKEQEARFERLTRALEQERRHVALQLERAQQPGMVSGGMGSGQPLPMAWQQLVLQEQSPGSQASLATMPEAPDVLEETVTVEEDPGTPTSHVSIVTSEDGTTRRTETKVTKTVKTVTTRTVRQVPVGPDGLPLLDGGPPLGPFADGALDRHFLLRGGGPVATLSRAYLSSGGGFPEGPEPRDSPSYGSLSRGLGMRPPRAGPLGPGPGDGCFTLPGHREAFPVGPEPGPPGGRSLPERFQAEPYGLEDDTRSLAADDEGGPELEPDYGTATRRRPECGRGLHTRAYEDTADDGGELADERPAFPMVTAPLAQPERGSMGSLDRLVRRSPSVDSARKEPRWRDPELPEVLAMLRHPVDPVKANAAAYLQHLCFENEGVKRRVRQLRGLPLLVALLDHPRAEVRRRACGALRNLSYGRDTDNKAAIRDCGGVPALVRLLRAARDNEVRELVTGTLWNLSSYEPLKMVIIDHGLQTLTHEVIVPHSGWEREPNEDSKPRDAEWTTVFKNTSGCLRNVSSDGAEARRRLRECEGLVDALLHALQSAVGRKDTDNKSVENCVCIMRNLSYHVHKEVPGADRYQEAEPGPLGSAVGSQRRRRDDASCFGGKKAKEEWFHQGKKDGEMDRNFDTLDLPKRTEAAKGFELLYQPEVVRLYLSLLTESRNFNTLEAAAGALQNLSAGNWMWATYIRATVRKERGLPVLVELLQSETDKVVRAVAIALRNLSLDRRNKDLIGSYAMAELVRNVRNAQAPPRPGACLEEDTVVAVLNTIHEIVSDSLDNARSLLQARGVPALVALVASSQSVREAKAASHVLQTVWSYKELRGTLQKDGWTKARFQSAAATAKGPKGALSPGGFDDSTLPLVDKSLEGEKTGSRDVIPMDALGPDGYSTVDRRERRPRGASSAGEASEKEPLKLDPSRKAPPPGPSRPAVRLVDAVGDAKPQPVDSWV

Tests used:
Test in all cases: log2 fold change, soluble protein after heating vs DMSO (PISA); higher = thermal stabilisation; K562 lysate, 10 uM; active = over 0.2 and 3.5 SD of the protein, either way, in both replicates (recomputed)
nilotinib = compound: Cc1cn(-c2cc(NC(=O)c3ccc(C)c(Nc4nccc(-c5cccnc5)n4)c3)cc(C(F)(F)F)c2)cn1 [nilotinib]
Outline: (§1)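 The values are log-two fold changes in thermal stability compared with solvent controls and come from duplicates. They were obtained by TMTpro 16plex LC-MS/MS, with channel sums equalised, on the supernatant after 21,000xg for 90 min. That supernatant came from crude K562 extract at 1 mg/mL protein treated with 10 μM compound for 30 min, heated for 3 min across 48°C-58°C, pooled and brought to 0.5% NP-40 at 4°C.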

[1] = compound: Cc1nc(Nc2n[nH]c3c2CN(C(=O)N[C@H](CN(C)C)c2ccccc2)C3(C)C)c2sccc2n1
Outline: as §1

dasatinib = compound: Cc1nc(Nc2ncc(C(=O)Nc3c(C)cccc3Cl)s2)cc(N2CCN(CCO)CC2)n1 [dasatinib]
Outline: as §1

[2] = compound: Cc1ncc(-c2ccnc(Nc3ccc(S(C)(=O)=O)cc3)n2)n1C(C)C
Outline: as §1

[3] = compound: Cn1cc(-c2ccc3c(c2)CCN3C(=O)Cc2cccc(C(F)(F)F)c2)c2c(N)ncnc21
Outline: as §1

tipifarnib = compound: Cn1cncc1[C@@](N)(c1ccc(Cl)cc1)c1ccc2c(c1)c(-c1cccc(Cl)c1)cc(=O)n2C [tipifarnib]
Outline: as §1

[4] = compound: NC(=O)c1cnc(N[C@@H]2CCCC[C@@H]2N)nc1Nc1cccc(-n2nccn2)c1
Outline: as §1

[5] = compound: NC1(c2ccc(-c3nc4ccn5c(=O)[nH]nc5c4cc3-c3ccccc3)cc2)CCC1
Outline: as §1

quisinostat = compound: Cn1cc(CNCC2CCN(c3ncc(C(=O)NO)cn3)CC2)c2ccccc21 [quisinostat]
Outline: as §1

[6] = compound: NC(=O)Nc1cc(-c2cccc(F)c2)sc1C(=O)N[C@H]1CCCNC1
Outline: as §1

Measured: log2 fold change

ARMCX5 (UniProt Q6P1M9)
inactive: nilotinib 0.035 | [1] 0.009 | dasatinib -0.039 | [2] 0.037 | [3] -0.07 | tipifarnib -0.023 | [4] 0.02 | [5] -0.027

ARMT1 (UniProt Q9H993)
inactive: nilotinib -0.019 | [1] -0.016 | dasatinib -0.083 | [2] 0.014 | [3] -0.007 | quisinostat -0.021 | tipifarnib 0.016 | [6] 0.031 | [4] -0.005 | [5] -0.016

ARFGAP3 (UniProt Q9NP61)
inactive: nilotinib 0.032 | [1] -0.015 | dasatinib 0.03 | [2] -0.007 | [3] -0.022 | quisinostat 0.012 | tipifarnib -0.045 | [6] -0.032 | [4] -0.03 | [5] 0.028

ARFGEF2 (UniProt Q9Y6D5)
inactive: nilotinib 0.004 | [1] 0.012 | dasatinib -0.103 | [2] -0.005 | [3] -0.003 | quisinostat -0.026 | tipifarnib -0.048 | [6] 0.099 | [4] 0.017 | [5] -0.017

AP5B1 (UniProt Q2VPB7)
active: [6] 0.324
inactive: nilotinib 0.001 | [1] -0.033 | dasatinib 0.065 | [2] -0.053 | [3] -0.072 | quisinostat -0.027 | tipifarnib -0.087 | [4] -0.023 | [5] -0.036

ARPC4 isoform 3 (UniProt P59998)
inactive: nilotinib -0.004 | [1] -0.017 | dasatinib 0.012 | [2] -0.019 | [3] 0.008 | quisinostat 0.034 | tipifarnib 0.01 | [6] -0.045 | [4] 0.001 | [5] 0.003

2 records drawn at random from the list so far:
ARMT1 (UniProt Q9H993)
inactive: nilotinib -0.019 | [1] -0.016 | dasatinib -0.083 | [2] 0.014 | [3] -0.007 | quisinostat -0.021 | tipifarnib 0.016 | [6] 0.031 | [4] -0.005 | [5] -0.016

AP5B1 (UniProt Q2VPB7)
active: [6] 0.324
inactive: nilotinib 0.001 | [1] -0.033 | dasatinib 0.065 | [2] -0.053 | [3] -0.072 | quisinostat -0.027 | tipifarnib -0.087 | [4] -0.023 | [5] -0.036

Next records:

APOBR (UniProt Q0VD83)
inactive: nilotinib -0.02 | [1] -0.029 | dasatinib -0.009 | [2] -0.005 | [3] 0.01 | quisinostat -0.011 | tipifarnib -0.021 | [6] -0.028 | [4] 0.002 | [5] -0.005

ARL6IP4 (UniProt Q66PJ3)
inactive: nilotinib -0.002 | [1] 0.003 | dasatinib 0.022 | [2] 0.068 | [3] -0.039 | quisinostat 0.042 | tipifarnib 0.004 | [6] -0.004 | [4] -0.018 | [5] -0.037

ARL8B (UniProt Q9NVJ2)
inactive: nilotinib 0.014 | [1] -0.005 | dasatinib 0.001 | [2] -0.01 | [3] -0.015 | quisinostat -0.019 | tipifarnib -0.033 | [6] -0.011 | [4] -0.021 | [5] -0.023

ARAP1 (UniProt Q96P48)
inactive: nilotinib -0.009 | [1] -0.029 | dasatinib -0.036 | [2] -0.032 | [3] 0.013 | quisinostat -0.072 | tipifarnib -0.041 | [6] 0.029 | [4] 0.006 | [5] 0.003

ARL2BP (UniProt Q9Y2Y0)
inactive: nilotinib -0.067 | [1] 0.019 | dasatinib -0.067 | [2] 0.014 | [3] -0.019 | quisinostat -0.165 | tipifarnib -0.067 | [6] 0.003 | [4] -0.009 | [5] -0.044

APLP2 (UniProt Q06481)
inactive: nilotinib 0.005 | [1] -0.007 | dasatinib -0.025 | [2] -0.022 | [3] 0.044 | quisinostat 0.025 | tipifarnib 0.002 | [6] 0.006 | [4] 0.035 | [5] 0.013

ARHGAP4 isoform 2 (UniProt P98171)
inactive: nilotinib -0.004 | [1] 0.001 | dasatinib -0.012 | [2] 0.026 | [3] 0.065 | quisinostat -0.028 | tipifarnib -0.007 | [6] 0.06 | [4] -0.025 | [5] -0.011

ARHGEF2 (UniProt V9GYF0)
inactive: nilotinib 0.029 | [1] -0.119 | dasatinib 0.02 | [2] -0.113 | [3] -0.139 | tipifarnib -0.23 | [4] 0.117

APP (UniProt P05067)
inactive: nilotinib -0.078 | [1] 0.062 | dasatinib 0.032 | [2] -0.018 | [3] 0.063 | quisinostat 0.06 | tipifarnib 0.137 | [6] 0.016 | [5] -0.051

APEX1 (UniProt P27695)
inactive: nilotinib 0.045 | [1] -0.037 | dasatinib 0.002 | [2] -0.027 | [3] 0.018 | quisinostat 0.016 | tipifarnib 0.001 | [6] 0.021 | [4] -0.011 | [5] -0.008

AP5Z1 (UniProt O43299)
inactive: nilotinib -0.029 | [1] 0.267 | dasatinib -0.08 | [2] 0.001 | [3] 0.013 | quisinostat -0.125 | tipifarnib 0.087 | [6] 0.066 | [4] 0.022 | [5] -0.046

ARF4 (UniProt P18085)
inactive: nilotinib 0.01 | [1] -0.03 | dasatinib -0.023 | [2] 0.018 | [3] 0.009 | quisinostat -0.154 | tipifarnib -0.053 | [6] -0.015 | [4] 0.011 | [5] -0.012

APOBEC3B (UniProt Q9UH17)
inactive: nilotinib 0.191 | [1] 0.056 | dasatinib 0.229 | [2] -0.293 | [3] -0.076 | quisinostat 0.046 | tipifarnib 0.162 | [6] -0.062 | [5] 0

ARHGEF2 (UniProt Q92974)
inactive: nilotinib 0.014 | [1] -0.01 | dasatinib -0.01 | [2] -0.025 | [3] 0.013 | quisinostat -0.048 | tipifarnib -0.04 | [6] 0.006 | [4] -0.008 | [5] 0.013

ARHGAP19 isoform 2 (UniProt Q14CB8)
inactive: nilotinib 0.073 | [1] 0.02 | dasatinib -0.023 | [2] 0.044 | [3] 0.069 | quisinostat -0.139 | tipifarnib -0.041 | [6] 0.01 | [5] 0.015

APMAP (UniProt Q9HDC9)
inactive: nilotinib -0.007 | [1] 0.008 | dasatinib -0.01 | [2] -0.01 | [3] 0.093 | quisinostat -0.021 | tipifarnib -0.024 | [6] -0.014 | [4] -0.011 | [5] -0.003

ARFGEF1 (UniProt Q9Y6D6)
inactive: nilotinib -0.018 | [1] 0.009 | dasatinib -0.021 | [2] 0.017 | [3] 0.022 | quisinostat -0.014 | tipifarnib -0.019 | [6] 0.023 | [4] 0.01 | [5] -0.02

ARGLU1 (UniProt Q9NWB6)
inactive: nilotinib -0.012 | [1] -0.007 | dasatinib 0.058 | [2] -0.018 | [3] 0.096 | quisinostat 0.022 | tipifarnib -0.043 | [6] -0.133 | [4] -0.012 | [5] 0.016

ARMC8 (UniProt Q8IUR7)
inactive: nilotinib 0.002 | [1] 0.01 | dasatinib 0.013 | [2] -0.01 | [3] 0.006 | quisinostat -0.024 | tipifarnib 0.026 | [6] 0.021 | [4] -0.009 | [5] -0.011

ARHGAP5 (UniProt Q13017)
inactive: nilotinib 0.01 | [1] -0.056 | dasatinib -0.002 | [2] 0.026 | [3] 0.021 | quisinostat -0.035 | tipifarnib 0.015 | [6] -0.004 | [4] 0.025 | [5] 0.029

ARVCF (UniProt O00192)
inactive: nilotinib -0.022 | [1] -0.032 | dasatinib -0.014 | [2] 0.004 | [3] -0.002 | quisinostat 0.105 | tipifarnib 0.069 | [6] 0.025 | [4] 0.024 | [5] -0.154

ARL14EP (UniProt Q8N8R7)
inactive: nilotinib -0.01 | [1] 0.059 | dasatinib 0.041 | [2] -0.03 | [3] 0.017 | quisinostat -0.005 | tipifarnib 0.039 | [6] 0.068 | [5] 0.07

ARL15 (UniProt Q9NXU5)
inactive: nilotinib -0.008 | [1] 0.021 | dasatinib -0.063 | [2] -0.046 | [3] 0.036 | quisinostat 0.024 | tipifarnib 0.031 | [6] -0.034 | [4] 0.021 | [5] 0.022

ARHGEF18 (UniProt Q6ZSZ5)
inactive: nilotinib -0.135 | [1] -0.001 | dasatinib 0.007 | [2] 0.084 | [3] -0.031 | quisinostat -0.12 | tipifarnib -0.061 | [6] 0.011 | [4] 0 | [5] 0.025
